No constants are given. Whether binding was seen depends on the method and setting. Binding seen in cells or lysates may run through a third protein. These calls come from enrichment with a bait or labelling near it, and not all partners need be listed. Tags and fused reporters may be left off the sequences shown. Values belong to the binder of their own block, whether it stands above or below them.
How the values were obtained:
Assay in all cases: affinity purification with mass spectrometry; 3×FLAG- or 13×myc-tagged bait purified from S. pombe cell extract on α-FLAG (M2) or α-myc (9E10) antibody cross-linked to Protein G Dynabeads, 4°C for 3 h, IP buffer (20 mM HEPES pH 7.5, 100 mM NaCl, 5 mM MgCl2, 1 mM EDTA, 10% glycerol, 0.25% Triton X-100, 0.5 mM DTT); LC-MS/MS; Red1-3×FLAG also from iss10Δ, rmn1Δ and Mtl1 knockdown cells
Ars2-3×FLAG (S. pombe) = molecular target: T1, Ars2-3×FLAG (S. pombe) (UniProt O94326)
T1 sequence: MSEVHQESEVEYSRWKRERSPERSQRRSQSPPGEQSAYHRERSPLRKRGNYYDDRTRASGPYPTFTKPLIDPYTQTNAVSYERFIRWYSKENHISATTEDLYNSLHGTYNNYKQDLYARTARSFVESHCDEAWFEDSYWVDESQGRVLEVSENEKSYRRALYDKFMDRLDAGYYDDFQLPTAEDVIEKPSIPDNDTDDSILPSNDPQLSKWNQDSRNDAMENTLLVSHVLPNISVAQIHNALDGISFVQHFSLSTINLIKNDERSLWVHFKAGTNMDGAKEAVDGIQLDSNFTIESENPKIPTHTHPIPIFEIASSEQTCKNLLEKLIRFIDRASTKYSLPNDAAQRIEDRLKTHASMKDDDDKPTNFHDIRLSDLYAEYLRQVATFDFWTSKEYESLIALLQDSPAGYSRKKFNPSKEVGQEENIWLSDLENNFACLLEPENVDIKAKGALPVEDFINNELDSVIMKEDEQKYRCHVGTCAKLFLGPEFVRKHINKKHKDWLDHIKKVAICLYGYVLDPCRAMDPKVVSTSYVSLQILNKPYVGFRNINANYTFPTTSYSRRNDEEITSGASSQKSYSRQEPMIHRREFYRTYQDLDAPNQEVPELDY

Red5-3×FLAG (S. pombe) = molecular target: T2, Red5-3×FLAG (S. pombe) (UniProt O74823)
T2 sequence: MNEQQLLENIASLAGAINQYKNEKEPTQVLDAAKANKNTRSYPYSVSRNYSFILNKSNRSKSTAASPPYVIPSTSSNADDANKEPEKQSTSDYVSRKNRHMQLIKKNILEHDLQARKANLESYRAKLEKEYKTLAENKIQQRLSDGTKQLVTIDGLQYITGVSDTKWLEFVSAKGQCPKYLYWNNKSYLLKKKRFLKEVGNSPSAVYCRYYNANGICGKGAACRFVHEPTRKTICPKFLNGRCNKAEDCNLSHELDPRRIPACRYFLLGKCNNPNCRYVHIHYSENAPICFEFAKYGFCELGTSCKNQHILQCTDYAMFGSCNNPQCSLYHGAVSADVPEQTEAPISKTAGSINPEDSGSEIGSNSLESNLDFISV

Rmn1-13×myc (S. pombe) = molecular target: T3, Rmn1-13×myc (S. pombe) (UniProt Q9USP9)
T3 sequence: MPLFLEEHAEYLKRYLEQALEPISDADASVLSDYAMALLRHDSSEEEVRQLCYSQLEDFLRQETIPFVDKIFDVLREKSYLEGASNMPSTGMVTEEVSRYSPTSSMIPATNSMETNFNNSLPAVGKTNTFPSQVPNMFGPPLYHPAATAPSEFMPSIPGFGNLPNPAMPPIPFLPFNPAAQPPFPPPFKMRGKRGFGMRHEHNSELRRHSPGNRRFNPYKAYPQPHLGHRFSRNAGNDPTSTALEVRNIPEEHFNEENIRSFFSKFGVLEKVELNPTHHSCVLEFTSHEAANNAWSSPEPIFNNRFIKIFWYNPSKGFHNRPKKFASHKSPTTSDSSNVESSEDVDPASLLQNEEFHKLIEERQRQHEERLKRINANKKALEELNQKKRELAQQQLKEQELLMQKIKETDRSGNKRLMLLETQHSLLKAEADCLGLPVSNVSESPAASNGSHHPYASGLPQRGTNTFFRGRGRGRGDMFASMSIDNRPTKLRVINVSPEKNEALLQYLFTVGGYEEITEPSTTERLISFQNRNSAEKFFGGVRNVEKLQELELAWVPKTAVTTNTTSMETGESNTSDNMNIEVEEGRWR

Mtl1-3×FLAG (S. pombe) = molecular target: T4, Mtl1-3×FLAG (S. pombe) (UniProt O13799)
T4 sequence: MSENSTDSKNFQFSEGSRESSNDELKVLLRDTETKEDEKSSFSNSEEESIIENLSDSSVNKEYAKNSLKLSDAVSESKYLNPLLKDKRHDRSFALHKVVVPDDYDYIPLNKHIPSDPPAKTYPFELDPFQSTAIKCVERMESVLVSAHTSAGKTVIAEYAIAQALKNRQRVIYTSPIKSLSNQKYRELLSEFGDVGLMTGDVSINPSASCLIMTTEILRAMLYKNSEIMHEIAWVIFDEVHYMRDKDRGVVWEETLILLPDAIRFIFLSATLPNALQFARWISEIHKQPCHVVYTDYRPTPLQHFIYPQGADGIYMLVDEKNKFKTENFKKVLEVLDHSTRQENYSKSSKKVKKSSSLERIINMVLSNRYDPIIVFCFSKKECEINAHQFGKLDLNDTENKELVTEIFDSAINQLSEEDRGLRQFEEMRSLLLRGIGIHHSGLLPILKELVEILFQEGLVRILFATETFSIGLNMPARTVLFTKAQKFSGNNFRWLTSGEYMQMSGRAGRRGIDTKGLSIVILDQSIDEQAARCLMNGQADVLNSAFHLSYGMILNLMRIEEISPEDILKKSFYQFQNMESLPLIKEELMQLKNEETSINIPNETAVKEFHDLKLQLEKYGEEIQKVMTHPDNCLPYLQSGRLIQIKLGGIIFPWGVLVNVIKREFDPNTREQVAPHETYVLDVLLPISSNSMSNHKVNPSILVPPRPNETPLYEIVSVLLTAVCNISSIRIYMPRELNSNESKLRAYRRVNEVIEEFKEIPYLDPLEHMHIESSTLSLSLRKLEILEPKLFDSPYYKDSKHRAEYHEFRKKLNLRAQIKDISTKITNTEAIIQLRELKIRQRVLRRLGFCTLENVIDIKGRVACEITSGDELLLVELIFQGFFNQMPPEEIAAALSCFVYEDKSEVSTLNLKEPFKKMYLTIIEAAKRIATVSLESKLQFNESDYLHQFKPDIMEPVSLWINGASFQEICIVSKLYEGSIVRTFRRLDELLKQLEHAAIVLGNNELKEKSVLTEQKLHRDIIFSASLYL

Red1-3×FLAG (S. pombe) = molecular target: T5, Red1-3×FLAG (S. pombe) (UniProt Q9UTR8)
T5 sequence: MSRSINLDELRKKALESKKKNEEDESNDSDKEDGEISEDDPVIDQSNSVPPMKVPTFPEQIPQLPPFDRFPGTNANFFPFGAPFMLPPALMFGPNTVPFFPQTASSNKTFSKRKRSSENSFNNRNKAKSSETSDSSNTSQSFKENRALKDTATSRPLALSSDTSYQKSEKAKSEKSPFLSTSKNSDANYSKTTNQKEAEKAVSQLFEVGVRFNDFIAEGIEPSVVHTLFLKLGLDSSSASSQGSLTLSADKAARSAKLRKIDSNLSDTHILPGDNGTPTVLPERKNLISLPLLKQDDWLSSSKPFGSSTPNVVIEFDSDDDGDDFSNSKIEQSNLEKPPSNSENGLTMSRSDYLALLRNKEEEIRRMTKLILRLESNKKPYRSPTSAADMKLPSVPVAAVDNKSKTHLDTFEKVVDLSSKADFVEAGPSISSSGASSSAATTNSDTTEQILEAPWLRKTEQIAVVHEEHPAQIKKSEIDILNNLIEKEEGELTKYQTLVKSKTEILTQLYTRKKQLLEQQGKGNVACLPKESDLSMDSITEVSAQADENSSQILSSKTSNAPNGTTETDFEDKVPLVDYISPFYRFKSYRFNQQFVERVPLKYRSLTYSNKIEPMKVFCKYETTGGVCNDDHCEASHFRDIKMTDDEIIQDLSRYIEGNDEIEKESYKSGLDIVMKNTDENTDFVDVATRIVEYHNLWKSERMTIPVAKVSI

- binding (Ars2-3×FLAG (S. pombe)): binds
- binding (Red5-3×FLAG (S. pombe)): binds
- binding (Rmn1-13×myc (S. pombe)): binds
B1: Mtl1-3×FLAG (protein, UniProt O13799 1-1030)
chain: T4 sequence

- binding (Mtl1-3×FLAG (S. pombe)): binds
- binding (Red1-3×FLAG (S. pombe)): binds
- binding (Red5-3×FLAG (S. pombe)): binds
B2: Rmn1-13×myc (protein, UniProt Q9USP9 1-589)
chain: T3 sequence
